Assay results published in the supplement of paper PMC3682954.
Where a name gives a salt, the structure may show the parent alone. ± gives the standard deviation of the averaged measurements. The list shows a part of the results. Many values rest on one well or one pass, so single values are uncertain.

Test system: RAW 264.7
Experiment: HMGB1-induced TNF-alpha production relative to HMGB1-stimulated control; higher = more TNF-alpha secretion (less inhibition)
Conditions: stimulus: HMGB1 5 ug/ml, 18 h
[1] = compound concentration: 1 ug/ml

SMILES | HMGB1-induced TNF-alpha production [1] [%] | HMGB1-induced TNF-alpha production (compound concentration: 3 uM) [%]
CN1C[C@H](CO)C=C2c3cccc4[nH]cc(c34)C[C@H]21 [Lysergol] | 63.3 | 
CC(N)Cc1c[nH]c2ccc(O)cc12 (stereo not drawn) [alpha-Methyl-5-hydroxytryptamine maleate] |  | 111
CN(N=O)c1cc(O)ccc1O [Dephostatin] |  | 69.1
CCN(CC)C(C)C(=O)c1ccccc1 (centres undefined) [Amfepramone hydrochloride] |  | 62.8
O[C@@H]1CCCC[C@H]1N1CCC(c2ccccc2)CC1 [L(-)-vesamicol hydrochloride] |  | 114
O=C1CCCN1CC#CCN1CCCC1 [Oxotremorine] |  | 98
O=C1CCCN1CC#CCN1CCCC1 [Oxotremorine sesquifumarate salt] |  | 106
C[C@]12N[C@H](Cc3ccccc31)c1ccccc12 [Dizocilpine maleate] |  | 76.7
C[N+]1([O-])[C@@H]2C[C@@H](OC(=O)[C@H](CO)c3ccccc3)C[C@H]1[C@@H]1O[C@@H]12 (some centres undefined) [Scopolamin-N-oxide hydrobromide] |  | 109
NCCc1ccccn1 |  | 108
CC1(C)C(C=C(Cl)Cl)C1C(=O)OC(C#N)c1cccc(Oc2ccccc2)c1 (centres undefined) |  | 60.7
Oc1cc(Cl)ccc1Oc1ccc(Cl)cc1Cl [Triclosan] |  | 86
Oc1cc(Cl)ccc1Oc1ccc(Cl)cc1Cl |  | 61.7
c1cncc([C@@H]2CCCN2)c1 [Nornicotine] |  | 110
C[C@@]12N[C@@H](Cc3ccccc31)c1ccccc12 [(-)-MK-801 hydrogen maleate] |  | 110
C[C@@]12N[C@@H](Cc3ccccc31)c1ccccc12 [(-)-MK 801 hydrogen maleate] |  | 108
CC(CC(C(N)=O)(c1ccccc1)c1ccccc1)N(C)C (centres undefined) |  | 101
C[C@]12CC[C@H]3[C@@H](CCC4=CC(=O)CC[C@@]43C)[C@@H]1CC[C@H]2O [Epitestosterone] | 70.3 | 
C#CCN[C@H](C)Cc1ccccc1 [R-(-)-Desmethyldeprenyl hydrochloride] |  | 102
CCCN(CCC)[C@@H]1CCc2cccc(O)c2C1 [R-(+)-8-Hydroxy-DPAT hydrobromide] |  | 97.6
OC[C@@H](O)[C@H]1O[C@@H]2O[C@H](C(Cl)(Cl)Cl)O[C@@H]2[C@H]1O |  | 82.5
C[N+]12CCC(CC1)C(OC(=O)C(O)(c1ccccc1)c1ccccc1)C2 (centres undefined) [Clidinium bromide] |  | 122
C[N+]12CCC(CC1)C(OC(=O)C(O)(c1ccccc1)c1ccccc1)C2 (centres undefined) |  | 88
CN1C(=O)CN=C(c2ccccc2)c2cc([N+](=O)[O-])ccc21 [Nimetazepam] |  | 109
CCCN1CCc2cc(O)cc3c2[C@H]1Cc1ccc(O)c(O)c1-3 [R(-)-2,10,11-Trihydroxy-N-propylnoraporphine hydrobromide] |  | 87.5
C=C(C)[C@@H]1[C@H]2OC(=O)[C@@H]1[C@]1(O)C[C@H]3OC34C(=O)O[C@H]2[C@@]41C.CC(C)(O)[C@@H]1[C@H]2OC(=O)[C@@H]1[C@]1(O)C[C@H]3OC34C(=O)O[C@H]2[C@@]41C (some centres undefined) [Picrotoxin] |  | 111

SMILES | HMGB1-induced TNF-alpha production [1] [%] | HMGB1-induced TNF-alpha production (compound concentration: 3 uM) [%]
CC(=O)OCC1=C(C(=O)O)N2C(=O)[C@@H](N)[C@H]2SC1 [Cephalosporanic acid, 7-amino] |  | 68.4
C/C=C(/C)C(=O)O[C@H]1CC[C@@]2(C)[C@@H]3CC[C@H]4[C@]5(O)C[C@H](O)[C@@]6(O)[C@@H](CN7C[C@@H](C)CC[C@H]7[C@@]6(C)O)[C@]5(O)C[C@]42O[C@]13O |  | 89.6
CO[C@]12C[C@@H](COC(=O)c3cncc(Br)c3)CN(C)[C@@H]1Cc1cn(C)c3cccc2c13 [Nicergoline,] | 84.4 | 
CO[C@]12C[C@@H](COC(=O)c3cncc(Br)c3)CN(C)[C@@H]1Cc1cn(C)c3cccc2c13 |  | 103
CO[C@]12C[C@@H](COC(=O)c3cncc(Br)c3)CN(C)[C@@H]1Cc1cn(C)c3cccc2c13 [Nicergoline] |  | 77.9 ± 26
C[C@H]1C(=O)O[C@@H]2CCN3CC=C(COC(=O)[C@](C)(O)[C@]1(C)O)[C@H]23 [Monocrotaline] | 71.2 | 
COC(=O)C(c1ccccc1)C1CCCCN1 (centres undefined) |  | 79
O=CN1CCCC[C@@H]1[C@@H]1CC[C@@H]2CCCCN2C1 [Leontiformine HBr] | 73.2 | 
CC1(C(=O)O)C2CCC(O2)C1(C)C(=O)O (centres undefined) [Cantharidic Acid] |  | 177
CC(C)(C)NCC(O)c1ccccc1Cl (centres undefined) [Tulobuterol] |  | 64.7 ± 7.6
CC(C)(C)NCC(O)c1ccccc1Cl (centres undefined) |  | 35.4
CC(C)(C)NCC(O)c1ccccc1Cl (centres undefined) [Tulobuterol hydrochloride] |  | 60.8
CN(C)C(=S)SSC(=S)N(C)C |  | 79.3
CC(C)C[C@H](CN)CC(=O)O |  | 89.7
C[C@]12Cc3c[nH]nc3C[C@@H]1CC[C@@H]1[C@@H]2CC[C@@]2(C)[C@H]1CC[C@]2(C)O [Stanozolol] |  | 82.3 ± 18
C[C@@H]1CC[C@H]2[C@@H](C)C(=O)O[C@@H]3O[C@@]4(C)CC[C@@H]1[C@]32OO4 [Artemisinin] | 76 | 78.7 ± 28
C[C@@H]1CC[C@H]2[C@@H](C)C(=O)O[C@@H]3O[C@@]4(C)CC[C@@H]1[C@]32OO4 |  | 69.6
CC[C@H]1[C@@H]2C[C@H]3[C@@H]4N(C)c5ccccc5[C@]45C[C@@H]([C@@H]2[C@H]5O)N3[C@@H]1O |  | 79.1
CS(=N)(=O)CC[C@H](N)C(=O)O (stereo partly drawn) [L-Methionine sulfoximine] |  | 100
CCC1(c2cccc(O)c2)CCCCN(C)C1 (centres undefined) [Meptazinol hydrochloride] |  | 90
Cc1ccc(O)cc1.Cc1cccc(O)c1.Cc1ccccc1O |  | 78.2
CCNC1(c2cccs2)CCCCC1=O (centres undefined) [Tiletamine hydrochloride] |  | 99.6
COc1cc([C@@H]2c3cc4c(cc3[C@H](O)[C@H]3COC(=O)[C@H]23)OCO4)cc(OC)c1OC [Podophyllotoxin] | 188 | 119 ± 42
COc1cc([C@@H]2c3cc4c(cc3[C@H](O)[C@H]3COC(=O)[C@H]23)OCO4)cc(OC)c1OC |  | 171
CNC(C)C(O)c1ccccc1 (centres undefined) |  | 85.4
CC(C)(C)C(=O)C(Oc1ccc(Cl)cc1)n1cncn1 (centres undefined) |  | 96.9

Taken from above.
For HMGB1-induced TNF-alpha production (compound concentration: 3 uM) [%], COC(=O)C(c1ccccc1)C1CCCCN1 (centres undefined) has the entry 79
For HMGB1-induced TNF-alpha production (compound concentration: 3 uM) [%], CO[C@]12C[C@@H](COC(=O)c3cncc(Br)c3)CN(C)[C@@H]1Cc1cn(C)c3cccc2c13 [Nicergoline] has the entry 77.9 ± 26
